Measurements from “University of Dundee, Small-Polar-MMV Screening Library” (2021), ChEMBL document CHEMBL3988442.

The chains behind the UniProt entries cited, without tags or fusion partners. Residues count along the entry.
UniProt Q4DA54, 1-478: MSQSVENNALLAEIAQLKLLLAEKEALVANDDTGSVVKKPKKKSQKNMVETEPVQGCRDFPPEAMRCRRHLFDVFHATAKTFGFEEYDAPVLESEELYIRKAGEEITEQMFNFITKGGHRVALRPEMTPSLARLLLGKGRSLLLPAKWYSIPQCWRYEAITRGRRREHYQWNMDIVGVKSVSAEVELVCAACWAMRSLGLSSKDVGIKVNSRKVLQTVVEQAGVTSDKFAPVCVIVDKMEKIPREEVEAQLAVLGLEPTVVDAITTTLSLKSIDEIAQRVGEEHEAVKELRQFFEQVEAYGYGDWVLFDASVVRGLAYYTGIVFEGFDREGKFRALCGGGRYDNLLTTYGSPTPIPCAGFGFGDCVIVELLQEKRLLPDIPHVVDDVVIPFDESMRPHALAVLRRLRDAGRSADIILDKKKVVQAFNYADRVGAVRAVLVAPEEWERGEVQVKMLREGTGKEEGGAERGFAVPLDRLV
UniProt A4I591, 1-473: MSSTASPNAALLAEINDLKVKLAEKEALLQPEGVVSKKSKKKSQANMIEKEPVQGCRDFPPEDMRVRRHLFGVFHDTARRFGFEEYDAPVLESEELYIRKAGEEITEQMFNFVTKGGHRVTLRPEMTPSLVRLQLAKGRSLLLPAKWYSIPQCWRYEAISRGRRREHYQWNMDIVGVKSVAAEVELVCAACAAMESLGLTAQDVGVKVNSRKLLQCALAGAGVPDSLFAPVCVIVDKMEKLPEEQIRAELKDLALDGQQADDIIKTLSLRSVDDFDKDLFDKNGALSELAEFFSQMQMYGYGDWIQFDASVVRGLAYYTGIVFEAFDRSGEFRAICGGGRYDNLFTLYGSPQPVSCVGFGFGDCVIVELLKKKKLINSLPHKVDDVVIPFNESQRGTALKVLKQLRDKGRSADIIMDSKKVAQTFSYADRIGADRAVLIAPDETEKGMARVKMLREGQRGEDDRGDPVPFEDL

TcHisRS: 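Histidine-tRNA ligase, Trypanosoma cruzi CL Brener (UniProt Q4DA54). Enzyme assay of histidyl-tRNA synthetase; the read-out is not stated. Tested at 30 µM. Direction is inferred from retests: higher values go with stronger inhibition. About 69,000 compounds were tested under these conditions; 0.045% (about 31) showed 50% or more at least once.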
LiHisRS: 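Histidine-tRNA ligase, Leishmania infantum (UniProt A4I591). Enzyme assay of histidyl-tRNA synthetase; the read-out is not stated. Compounds at 30 µM. Direction is inferred from retests: higher values go with stronger inhibition. The assay is labelled LdHisRS but filed under L. infantum. About 69,000 compounds were tested under these conditions; 0.6% (about 410) showed 50% or more at least once.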

Each number is a percent effect as filed.
How 0% and 100% were set is not recorded. Most values in the screen are low, and negative values occur.
This is an unselected part of the compounds tested.

| compound | TcHisRS | LiHisRS |
|---|---|---|
| `CC(C)C(C)(C#N)NC(=O)Cn1cc(Cl)cn1` (centres unmarked) | -2.89% | 6.667% |
| `Cc1ccc(C(C)NC(=O)Cc2c(C)nc3c(c2C)c(=O)[nH]n3C)o1` (centres unmarked) | 1.674% | 19.81% |
| `Cc1nc(CN2CCCC(NCc3ccsc3)C2)no1` (centres unmarked) | 3.053% | 13.7% |
| `COc1ccccc1CC(=O)N1CCCC(n2nc(C)nc2C)C1` (centres unmarked) | 2.286% | 1.695% |
| `COc1ccc(C(NCc2cccc(C#N)c2)C(C)C)cc1` (centres unmarked) | 9.052% | 11.39% |
| `CN1CCN(CCC(F)(F)C(F)F)CC12CCNC(=O)CC2` (centres unmarked) | 1.149% | -10.26% |
| `O=S(=O)(Cc1cccc(Cl)c1)CC(O)Cn1cccn1` (centres unmarked) | 2.128% | 24.29% |
| `CN(C)CC1CN(Cc2ccc3c(c2)OCO3)Cc2nccn2C1` (centres unmarked) | 6.011% | 0% |
| `Cc1nn(C)c(C)c1NC(=O)CNC(c1ccccc1)C1CCC1` (centres unmarked) | 7.937% | 5.479% |
| `CS(=O)(=O)NC[C@@H]1OC[C@H]2CN(Cc3ccsc3)CC[C@H]21` | 0.9346% | -2.778% |
| `CN1CCC(CNC(=O)c2cccc(NC(N)=O)c2)c2ccccc21` (centres unmarked) | 6.806% | 17.24% |
| `O=S(=O)(CCCN1CCc2c(ncn2C2CC2)C1)c1ccccc1` | 0.8772% | 12.39% |
| `COCC1CN(C(=O)c2ccco2)Cc2cn(C)nc21` (centres unmarked) | 4.301% | 6.195% |
| `Cc1noc(C)c1C(=O)NCc1ccc(N2CCOC(C)C2)nc1` (centres unmarked) | -0.3774% | 28.38% |
| `CN(Cc1cccnc1)CC1CN(C(N)=O)Cc2nccn2C1` (centres unmarked) | 1.97% | 0% |
| `COCCN(Cc1ccccn1)C(=O)Nc1cccnc1-n1cccn1` | -0.5291% | 20% |
| `CCC(C)(CC(=O)O)NC(=O)Cc1ccccc1Br` (centres unmarked) | 1.463% | 3.39% |
| `CCN(C(=O)c1ccc(-c2ccccc2)nc1C)C1CC(=O)NC1=O` (centres unmarked) | 6.494% | 22.86% |
| `O=S1(=O)c2cccnc2OC(COc2ccccc2)CN1CC1CC1` (centres unmarked) | -6.936% | 10.31% |
| `COCCN1CCN(Cc2ccc(OCc3nccn3C)cc2)CC1` | 0% | 20.87% |
| `CC(C)N1CCO[C@H]2CN(C(=O)c3ccccn3)C[C@H]21` | 2.521% | 15.6% |
| `c1cnn(CCNCc2ccc(N3CCCCC3)cc2)c1` | 4.878% | 13.25% |
| `CN(Cc1cc2cc(F)ccc2[nH]1)c1cc(C2CCCNC2)ncn1` (centres unmarked) | 10.91% | 18.18% |
| `CCNC(=O)NC(=O)CNc1cc(C#N)ccc1OCC` | 2.907% | 12.5% |
| `CC1CCN(C(=O)[C@H]2CC[C@@H]3[C@@H](CCN3Cc3nccs3)O2)CC1` | 3.365% | 19.27% |
| `O=C(c1ccc(Cl)cc1)N1CCCn2nnc(Cn3cccn3)c2C1` | -3.39% | 11.32% |
| `Cc1cccc(CN2C(=O)CCC23CCN(Cc2ccoc2)CC3)n1` | -0.4808% | 6.422% |
| `CCOCC(=O)NCC(Cc1cccc(F)c1)N1CCCCC1=O` (centres unmarked) | -2.41% | 28.21% |
| `Cc1cnn(C2CN(c3nc(-c4ccncc4)nc4c3CCC4)C2)c1` | 10.3% | 26.67% |
| `Cc1cc(C2CCCN2Cc2ccc(C(=O)Nc3nccs3)cc2)on1` (centres unmarked) | 8.287% | 12.05% |
| `Cc1nccn1CCC1CCN(C(=O)C2CC3(CCNCC3)CN2)CC1` (centres unmarked) | 4.478% | 9.79% |
| `N#Cc1ccc(N2CCC3(CC2)COCCN3Cc2cccnc2)cc1` | 15.19% | 17.24% |
| `O=S(=O)(c1cccs1)N1Cc2nc(CN3CCCC3)oc2C1` | 4.523% | 0% |
| `O=C1CN(CC[C@@H](O)c2ccccc2)CCN1c1ccccc1Cl` | 3.665% | 7.527% |
| `COCc1nc(N(C)C)ncc1C(=O)NC(C)c1ccccc1` (centres unmarked) | 3.478% | 6.897% |
| `CCCNc1ncc(-c2cc(C3CC3)nc(N)c2C#N)cn1` | 8.081% | 9.574% |
| `Cc1cc(CNc2ccc(C(F)(F)F)cc2)no1` | 9.827% | 17.02% |
| `Cc1ccnn1CC(=O)N1CCN(C2CCc3ccccc3C2)CC1` (centres unmarked) | 3.261% | 1.316% |
| `COc1cccc(Nc2nc(C3CCNCC3)c3sc(C)c(C)n23)c1` | 9.579% | 20.14% |
| `CCc1nc(C)sc1CN1C[C@@H](C)[C@@](C)(O)C1` | 6.931% | 7.143% |
| `CCc1ccc(O)c(C(=O)N2CCN(CC(=O)N(C)C)CC2)c1` | 0.5435% | 13.33% |
| `O=C(NC1CC1)N1CCc2ccc(=O)n(Cc3cccnc3)c2CC1` | 3.226% | 14.04% |
| `NC(=O)[C@@H]1CN2CCN(C(=O)C3CC3)C[C@@H]2[C@H]1c1ccccc1` | 3.371% | 2.041% |
| `CC(C)N(C)Cc1cncc2c1CCN(Cc1cccs1)C2` | 10.55% | 19.8% |
| `CCc1cc(N[C@@H]2C[C@H]3CC[C@@H]2C3)n2nccc2n1` | 6.122% | 25.71% |
| `CN(C)[C@H]1C[C@@H](Cc2cc(-c3ccc(F)cc3)on2)C1(C)C` | -0.4975% | 24.32% |
| `CC(c1nc(C(C)(C)C)no1)N1CCN(CC(=O)N2CCOCC2)CC1` (centres unmarked) | -18.48% | 5.714% |
| `CCNc1ncc2c(n1)CN(c1ccc(Cl)cc1)C2=O` | -1.739% | 15.52% |
| `O=C(CCO)N1CCOC2(CCCN(C(=O)c3ccco3)C2)C1` (centres unmarked) | -9.205% | -16.04% |
| `CC(C)(C)n1ncc(NCCc2ccccc2C(F)(F)F)c(Cl)c1=O` | 10.1% | 26.6% |
| `O=C(NCCn1ccnc1)c1cccc(Br)c1` | 5.195% | 22.86% |
| `O=C1COC2(CCN(C(=O)c3ccco3)CC2)CN1Cc1cccnc1` | 8.271% | 17.07% |
| `COC(=O)C1CN(Cc2ccn(-c3ccc(F)cc3)n2)CCO1` (centres unmarked) | 6.173% | 9.804% |
| `CCOC(=O)c1sc2ccsc2c1CN` | 5.747% | 0% |
| `Cc1nc(CN2CCN(C)C(=O)C23CCN(C(C)C)CC3)cs1` | 7.263% | 15.38% |
| `Cc1cc(=O)n(CC(=O)NC2CCCCC2)c2ccccc12` | 0% | 5.833% |
| `COc1ccc2oc(-c3cn(C)nc3C)c(O)c(=O)c2c1` | 3.982% | 2.655% |
| `O=C(O)[C@]12CCCN(Cc3ccco3)C[C@H]1CN(c1ncccn1)C2` | 4.478% | 2.778% |